Results deposited as PubChem BioAssay AID1159584 (Peter MacCallum Cancer Centre, 2016).
The whole screen tested about 18,000 reagents; this is an unselected part. The numbers tell different reagents against one gene apart. Not all columns of the deposit are shown. No sequences are given here. The record does not give: the amount of reagent, the time to read-out.

Screen: 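Genes that CDH1-null MCF10A cells selectively depend on to survive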 (primary screen)
Cells: human MCF10A breast epithelial cells, parental and CDH1-null
Reagent: siRNA against human genes
Read-out: 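Cell viability by CellTiter-Glo ATP luminescence, each line scaled to the mean of mock wells across plates, then CDH1-null over parental ratio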
Scale: CDH1-null / parental viability ratio: higher = CDH1-null cells survive relatively better than parental

| gene | reagent no. | CDH1-null / parental viability ratio |
| --- | --- | --- |
| OSTN (osteocrin) | 1 | 1.06 |
| SNRPB (small nuclear ribonucleoprotein polypeptides B and B1) | 1 | 1.91 |
| VWA5B1 (von Willebrand factor A domain containing 5B1) | 1 | 1.11 |
| SLC25A25 | 1 | 1.11 |
| CACNG7 (calcium voltage-gated channel auxiliary subunit gamma 7) | 1 | 1.12 |
| ACAT1 (acetyl-CoA acetyltransferase 1) | 1 | 1.02 |
| CELA2B (chymotrypsin like elastase 2B) | 1 | 1.18 |
| ARID2 (AT-rich interaction domain 2) | 1 | 1.18 |
| THOC2 (THO complex subunit 2) | 1 | 0.95 |
| MYH8 (myosin heavy chain 8) | 1 | 0.86 |
| EIF2B4 (eukaryotic translation initiation factor 2B subunit delta) | 1 | 1.08 |
| KDM5A (lysine demethylase 5A) | 1 | 0.96 |
| SNAP23 (synaptosome associated protein 23) | 1 | 0.48 |
| OR9Q1 (olfactory receptor family 9 subfamily Q member 1) | 1 | 0.96 |
| COL5A1 (collagen type V alpha 1 chain) | 1 | 1.14 |
| KIFAP3 (kinesin associated protein 3) | 1 | 1.14 |
| BAG2 (BAG cochaperone 2) | 1 | 0.9 |
| HDAC8 (histone deacetylase 8) | 1 | 0.99 |
| ARID3A (AT-rich interaction domain 3A) | 1 | 0.98 |
| MUC7 (mucin 7, secreted) | 1 | 1.12 |
| ZNF91 (zinc finger protein 91) | 1 | 1.09 |
| SLC14A1 | 1 | 0.83 |
| DRC11 (dynein regulatory complex subunit 11) | 1 | 0.98 |
| BEX5 (brain expressed X-linked 5) | 1 | 1.08 |

Already shown: 8 of the entries above.
| gene | reagent no. | CDH1-null / parental viability ratio |
| --- | --- | --- |
| MYH8 (myosin heavy chain 8) | 1 | 0.86 |
| EIF2B4 (eukaryotic translation initiation factor 2B subunit delta) | 1 | 1.08 |
| KDM5A (lysine demethylase 5A) | 1 | 0.96 |
| SNAP23 (synaptosome associated protein 23) | 1 | 0.48 |
| OR9Q1 (olfactory receptor family 9 subfamily Q member 1) | 1 | 0.96 |
| COL5A1 (collagen type V alpha 1 chain) | 1 | 1.14 |
| KIFAP3 (kinesin associated protein 3) | 1 | 1.14 |
| BAG2 (BAG cochaperone 2) | 1 | 0.9 |

Continued:
| gene | reagent no. | CDH1-null / parental viability ratio |
| --- | --- | --- |
| TXNIP (thioredoxin interacting protein) | 1 | 0.97 |
| TMEM59 (transmembrane protein 59) | 1 | 1.36 |
| NDUFAF6 (NADH:ubiquinone oxidoreductase complex assembly factor 6) | 1 | 0.95 |
| LIF (LIF interleukin 6 family cytokine) | 1 | 1.11 |
| ZNG1C (Zn regulated GTPase metalloprotein activator 1C) | 1 | 1.04 |
| LACRT (lacritin) | 1 | 1.16 |
| NEU3 (neuraminidase 3) | 1 | 0.78 |
| IFNAR2 (interferon alpha and beta receptor subunit 2) | 1 | 0.98 |
| FAM50B (family with sequence similarity 50 member B) | 1 | 1.02 |
| SF3B5 (splicing factor 3b subunit 5) | 1 | 1.38 |
| PRPF38B (pre-mRNA processing factor 38B) | 1 | 0.89 |
| KLHL42 (kelch like family member 42) | 1 | 0.76 |
| OLFM3 (olfactomedin 3) | 1 | 1.02 |
| PKD2L2 | 1 | 1.12 |
| OR4K15 (olfactory receptor family 4 subfamily K member 15) | 1 | 1.08 |
| PCDHB13 (protocadherin beta 13) | 1 | 1.21 |
| OS9 (OS9 endoplasmic reticulum lectin) | 1 | 1.03 |
| POU2AF1 (POU class 2 homeobox associating factor 1) | 1 | 1.05 |
| SNRPG (small nuclear ribonucleoprotein polypeptide G) | 1 | 1 |
| PSENEN (presenilin enhancer, gamma-secretase subunit) | 1 | 1.1 |
| MOCS3 (molybdenum cofactor synthesis 3) | 1 | 1.16 |
| SP110 (SP110 nuclear body protein) | 1 | 1.5 |
| TREM1 (triggering receptor expressed on myeloid cells 1) | 1 | 0.87 |
| RIMBP2 (RIMS binding protein 2) | 1 | 0.91 |
| DET1 (DET1 partner of COP1 E3 ubiquitin ligase) | 1 | 0.79 |
| OR2M4 (olfactory receptor family 2 subfamily M member 4) | 1 | 1.38 |
| PCMTD1 | 1 | 1.16 |
| ZBTB43 (zinc finger and BTB domain containing 43) | 1 | 0.9 |
| SPIB (Spi-B transcription factor) | 1 | 0.84 |
| NAMPT (nicotinamide phosphoribosyltransferase) | 1 | 0.93 |
| RCC1 (regulator of chromosome condensation 1) | 1 | 0.93 |
| RCC1 (regulator of chromosome condensation 1) | 2 | 1.29 |
| RGS11 (regulator of G protein signaling 11) | 1 | 1.17 |
| REV3L (REV3 like, DNA directed polymerase zeta catalytic subunit) | 1 | 0.98 |
| PGPEP1 (pyroglutamyl-peptidase I) | 1 | 1.05 |
| SACK1E (scaffolding CK1 anchoring protein E) | 1 | 0.95 |
| C4B (complement C4B (Chido/Rodgers blood group)) | 1 | 0.88 |
| ADAT2 (adenosine deaminase tRNA specific 2) | 1 | 0.93 |
| IGFL3 (IGF like family member 3) | 1 | 0.84 |
| DDX10 (DEAD-box helicase 10) | 1 | 1.21 |
| PRICKLE4 (prickle planar cell polarity protein 4) | 1 | 1.01 |
| H4C9 (H4 clustered histone 9) | 1 | 1.25 |
| TNRC18 (trinucleotide repeat containing 18) | 1 | 1.14 |
| ECM2 (extracellular matrix protein 2) | 1 | 1.07 |
